This note sets out measurements from publication PMC9035678.

Protein sequences, listed by entry. Tags and fused reporters are not part of them.
UniProt Q39255: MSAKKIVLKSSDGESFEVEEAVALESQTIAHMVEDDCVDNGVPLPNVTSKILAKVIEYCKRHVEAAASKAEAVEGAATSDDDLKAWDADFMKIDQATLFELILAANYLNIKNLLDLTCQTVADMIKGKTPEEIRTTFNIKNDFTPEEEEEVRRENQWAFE
UniProt Q94AH6: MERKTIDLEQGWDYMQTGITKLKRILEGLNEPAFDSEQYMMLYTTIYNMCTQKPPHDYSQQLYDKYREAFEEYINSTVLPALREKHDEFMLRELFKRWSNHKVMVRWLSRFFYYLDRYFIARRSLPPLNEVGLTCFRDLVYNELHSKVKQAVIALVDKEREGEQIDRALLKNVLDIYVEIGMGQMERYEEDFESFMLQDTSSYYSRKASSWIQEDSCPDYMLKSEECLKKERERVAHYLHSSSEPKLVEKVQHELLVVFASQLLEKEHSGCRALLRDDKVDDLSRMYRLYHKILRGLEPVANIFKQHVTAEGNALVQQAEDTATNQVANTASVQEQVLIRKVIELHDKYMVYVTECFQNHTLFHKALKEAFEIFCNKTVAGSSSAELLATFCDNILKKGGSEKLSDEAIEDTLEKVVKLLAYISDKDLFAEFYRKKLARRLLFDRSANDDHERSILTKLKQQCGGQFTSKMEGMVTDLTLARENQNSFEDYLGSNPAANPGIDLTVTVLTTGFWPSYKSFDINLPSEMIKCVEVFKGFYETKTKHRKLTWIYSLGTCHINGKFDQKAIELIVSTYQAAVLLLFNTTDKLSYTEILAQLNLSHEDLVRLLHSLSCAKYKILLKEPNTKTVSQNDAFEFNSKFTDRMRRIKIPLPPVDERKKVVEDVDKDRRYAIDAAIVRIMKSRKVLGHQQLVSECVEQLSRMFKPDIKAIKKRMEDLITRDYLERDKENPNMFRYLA

This test concerns the target T1, 3HA-FBW2 (3x human influenza hemagglutinin (HA)-epitope at the N terminus of FBW2) (Arabidopsis thaliana) (UniProt Q9ZPE4).
T1 sequence: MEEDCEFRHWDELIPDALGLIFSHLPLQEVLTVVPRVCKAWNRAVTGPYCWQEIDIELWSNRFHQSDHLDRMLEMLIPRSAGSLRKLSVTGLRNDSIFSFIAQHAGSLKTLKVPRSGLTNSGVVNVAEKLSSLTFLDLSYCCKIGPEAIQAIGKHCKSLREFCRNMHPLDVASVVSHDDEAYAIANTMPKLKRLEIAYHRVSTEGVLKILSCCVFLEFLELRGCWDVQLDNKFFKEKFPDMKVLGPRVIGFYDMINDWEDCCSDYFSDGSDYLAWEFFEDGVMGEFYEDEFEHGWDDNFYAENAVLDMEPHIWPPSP
The experiment in a line: co-IP; 3HA-FBW2 immunoprecipitated with anti-HA magnetic beads from extracts of 10-day-old XVE:3HA-FBW2 seedlings after overnight induction with DMSO or 10 μM β-estradiol, with or without MLN4924; IP buffer 25 mM Tris HCl pH 7.5, 150 mM NaCl, 10% glycerol, 5 mM MgCl2, 0.1% Tween 20, 15 mM EGTA, 10 μM MG132; 3 h at room temperature; western blot (Figure 2B, Figure S9). A general note: Immunoblotting shows a protein as a band on a membrane.

No constants are given. Whether binding was seen depends on the method and setting. In cells and extracts the contact can be indirect. Some results given as binding are weak or reduced against the parent protein; the word gives no strength. Tags and fused reporters may be left off the sequences shown.

Turning to “ASK1 (Skp1-like protein) (from UniProt Q39255 1-160)”, the binding result is listed as “binds”.

“cullin 1 (CUL1) (from UniProt Q94AH6 1-738)”: the binding result is on record as “binds”.

B1: ARGONAUTE1 (AGO1) (protein, UniProt O04379 1-1048)
chain: MVRKRRTDAPSEGGEGSGSREAGPVSGGGRGSQRGGFQQGGGQHQGGRGYTPQPQQGGRGGRGYGQPPQQQQQYGGPQEYQGRGRGGPPHQGGRGGYGGGRGGGPSSGPPQRQSVPELHQATSPTYQAVSSQPTLSEVSPTQVPEPTVLAQQFEQLSVEQGAPSQAIQPIPSSSKAFKFPMRPGKGQSGKRCIVKANHFFAELPDKDLHHYDVTITPEVTSRGVNRAVMKQLVDNYRDSHLGSRLPAYDGRKSLYTAGPLPFNSKEFRINLLDEEVGAGGQRREREFKVVIKLVARADLHHLGMFLEGKQSDAPQEALQVLDIVLRELPTSRYIPVGRSFYSPDIGKKQSLGDGLESWRGFYQSIRPTQMGLSLNIDMSSTAFIEANPVIQFVCDLLNRDISSRPLSDADRVKIKKALRGVKVEVTHRGNMRRKYRISGLTAVATRELTFPVDERNTQKSVVEYFHETYGFRIQHTQLPCLQVGNSNRPNYLPMEVCKIVEGQRYSKRLNERQITALLKVTCQRPIDREKDILQTVQLNDYAKDNYAQEFGIKISTSLASVEARILPPPWLKYHESGREGTCLPQVGQWNMMNKKMINGGTVNNWICINFSRQVQDNLARTFCQELAQMCYVSGMAFNPEPVLPPVSARPEQVEKVLKTRYHDATSKLSQGKEIDLLIVILPDNNGSLYGDLKRICETELGIVSQCCLTKHVFKMSKQYMANVALKINVKVGGRNTVLVDALSRRIPLVSDRPTIIFGADVTHPHPGEDSSPSIAAVVASQDWPEITKYAGLVCAQAHRQELIQDLFKEWKDPQKGVVTGGMIKELLIAFRRSTGHKPLRIIFYRDGVSEGQFYQVLLYELDAIRKACASLEAGYQPPVTFVVVQKRHHTRLFAQNHNDRHSVDRSGNILPGTVVDSKICHPTEFDFYLCSHAGIQGTSRPAHYHVLWDENNFTADGLQSLTNNLCYTYARCTRSVSIVPPAYYAHLAAFRARFYMEPETSDSGSMASGSMARGGGMAGRSTRGPNVNAAVRPLPALKENVKRVMFYC
As to B1, the binding entry is given as “binds”.
